Laboratory results as given in ChEMBL document CHEMBL5338779, “Discovery, Synthesis, and In Vitro Characterization of 2,3 Derivatives of 4,5,6,7-Tetrahydro-Benzothiophene as Potent Modulators of Retinoic Acid Receptor-Related Orphan Receptor γt” (J Med Chem, 2023).
≈ marks a conversion by molar mass, not a printed value.

How the values were obtained:
physchem [1] = details: buffer, pH 7.4
physchem [2] = details: simulated gi fluid, pH 1.6
physchem [3] = details: buffer, pH 5

SMILES: O=C(Nc1sc2c(c1C(=O)N1CCN(Cc3ccccc3)CC1)CCCC2)c1ccccc1F
- solubility kinetic at 2 h (physchem [1]): 12.9 µM (≈ 6.14 µg/mL)
- solubility kinetic at 2 h (physchem [2]): 291 µM (≈ 139 µg/mL)
- solubility kinetic at 2 h (physchem [3]): 34 µM (≈ 16.2 µg/mL)
